Drawing on article PMC5006283, this text covers binding for two substances.

In experiment [1] the target is T1, myc-RI (ribonuclease inhibitor from pcDNA3.1(-)-myc-RI) (human) (UniProt P13489).
T1 sequence: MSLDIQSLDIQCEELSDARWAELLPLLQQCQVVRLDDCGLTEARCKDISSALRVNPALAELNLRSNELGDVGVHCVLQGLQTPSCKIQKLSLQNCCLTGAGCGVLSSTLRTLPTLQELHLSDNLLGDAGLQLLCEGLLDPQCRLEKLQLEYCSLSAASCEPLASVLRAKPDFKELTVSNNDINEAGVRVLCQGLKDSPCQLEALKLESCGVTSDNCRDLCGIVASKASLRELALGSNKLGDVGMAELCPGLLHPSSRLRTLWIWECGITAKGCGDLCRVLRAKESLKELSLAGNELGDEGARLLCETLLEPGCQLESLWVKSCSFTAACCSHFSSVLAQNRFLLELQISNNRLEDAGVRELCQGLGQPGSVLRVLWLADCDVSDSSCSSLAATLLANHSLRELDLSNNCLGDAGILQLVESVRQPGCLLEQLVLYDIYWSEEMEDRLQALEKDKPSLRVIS
Description: FRET or BRET; EJ cells transfected with pCMV-3xFlag-ILK and pcDNA3.1(-)-myc-RI; immunofluorescence with Alexa Fluor 488 (ILK) and cy3 (RI) secondary antibodies; acceptor photobleaching of cy3 with the 543 nm laser.

The target of experiment [2] is T1, myc-RI (ribonuclease inhibitor from pcDNA3.1(-)-myc-RI) (human). Kind of experiment: co-IP; EJ and HEK293 cells co-transfected with pCMV-3xFlag-ILK and pcDNA3.1(-)-myc-RI; precipitated with anti-Myc antibody and protein A-agarose; blotted with anti-RI or anti-ILK.
The target in experiment [3] is T2, GST-RI (ribonuclease inhibitor fused to GST) (human) (UniProt P13489).
T2 sequence: T1 sequence
Description: pull-down; GST-RI held on glutathione-Sepharose 4B beads; extracts of transfected EJ or HEK293 cells added; 3 h at 4 °C with rotation; washed with ice-cold PBS; Western blot; only the target purified. A general note: In western blotting, separated proteins are transferred to a membrane and probed.

These are yes or no findings as the source states them, for the method shown. In cells and extracts the contact can be indirect. Some results given as binding are weak or reduced against the parent protein; the word gives no strength. Tags and fused reporters may be left off the sequences shown.

Turning to “Flag-ILK (integrin-linked kinase from pCMV-3xFlag-ILK) (from UniProt Q13418-1 1-452)”, the binding entry in experiment [1], in experiment [2] and in experiment [3] was “binds” each time.
Take “endogenous ILK (integrin-linked kinase) (from UniProt Q13418-1 1-452)”: the binding entry in experiment [3] is “binds”.
